The values below come from paper PMC3464245.

No constants are given. Whether binding was seen depends on the method and setting. Binding seen in cells or lysates may run through a third protein. Binding can be weak; no strength is given.

This assay has as its target HA-tagged Kluyveromyces lactis Doa10 N-terminal fragment (HA-Nt-KlDoa10) (Kluyveromyces lactis) (UniProt Q6CIC6). As to the kind of experiment: co-IP; HA-Nt-KlDoa10 and Ct-KlDoa10-13MYC expressed alone or together from separate plasmids in K. lactis doa10Δ cells; membrane fraction solubilized in 1% digitonin; precipitated with anti-HA agarose beads; immunoblot with anti-MYC or anti-HA. (In general: A western blot detects proteins with antibodies after separation by electrophoresis.)

For “13MYC-tagged Kluyveromyces lactis Doa10 C-terminal fragment (Ct-KlDoa10-13MYC) (from UniProt Q6CIC7)”, the binding entry was “binds”.
